Source: paper PMC10813569
These are yes or no findings as the source states them, for the method shown. Binding seen in cells or lysates may run through a third protein. Some binding calls cover weakened binding; strength is not graded here.

Amino acid sequences for entries named in this document (tags omitted).
UniProt Q96H22: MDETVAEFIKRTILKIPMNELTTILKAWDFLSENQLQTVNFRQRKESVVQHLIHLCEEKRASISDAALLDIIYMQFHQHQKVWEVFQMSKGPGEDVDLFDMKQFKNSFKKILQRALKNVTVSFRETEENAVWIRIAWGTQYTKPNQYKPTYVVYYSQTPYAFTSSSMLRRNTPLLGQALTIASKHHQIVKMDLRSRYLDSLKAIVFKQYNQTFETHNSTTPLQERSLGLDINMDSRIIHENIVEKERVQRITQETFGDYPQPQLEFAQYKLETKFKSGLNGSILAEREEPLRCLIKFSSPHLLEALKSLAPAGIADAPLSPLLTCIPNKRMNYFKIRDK
UniProt P16220: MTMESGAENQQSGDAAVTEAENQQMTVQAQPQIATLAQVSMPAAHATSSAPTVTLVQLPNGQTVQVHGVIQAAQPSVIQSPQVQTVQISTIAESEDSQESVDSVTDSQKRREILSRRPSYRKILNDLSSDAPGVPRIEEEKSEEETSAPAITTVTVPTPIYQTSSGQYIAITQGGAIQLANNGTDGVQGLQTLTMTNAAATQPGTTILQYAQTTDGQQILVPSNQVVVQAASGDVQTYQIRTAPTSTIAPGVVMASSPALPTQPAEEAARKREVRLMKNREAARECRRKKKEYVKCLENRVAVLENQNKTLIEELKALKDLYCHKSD

Tests used:
[1] = target: CENPN (centromere protein N) (human (endogenous in 5-8F)) (UniProt Q96H22); assay: co-IP; endogenous proteins; 5-8F whole-cell lysate (2 mg) in RIPA lysis buffer with protease inhibitor cocktail, protein G beads, indicated antibodies or isotype-matched IgG (2 ug), 2 h; detection by western blot
GST-CENPN (human) = GST-CENPN (human) (UniProt Q96H22); assay: pull-down; 500 ug GST-CENPN (or GST, control) on glutathione-agarose resin, 3 h; 500 ug HA-CREB protein added, mixed overnight; western blot with anti-GST and anti-HA

Substance | binding [1] | binding (GST-CENPN (human))
CREB (cAMP regulatory element binding protein) (from UniProt P16220 1-327) | binds | –
HA-CREB (from UniProt P16220 1-327) | – | binds
